We go through three substances from PMC5766566, “Characterization of human small heat shock protein HSPB1 α-crystallin domain localized mutants associated with hereditary motor neuron diseases” (Scientific Reports, 2018).

By UniProt entry, the sequences of proteins in these tests, tags left out. Where a name states a change or a piece, a line headed by the entry shows the natural chain unless it says otherwise.
UniProt P04792: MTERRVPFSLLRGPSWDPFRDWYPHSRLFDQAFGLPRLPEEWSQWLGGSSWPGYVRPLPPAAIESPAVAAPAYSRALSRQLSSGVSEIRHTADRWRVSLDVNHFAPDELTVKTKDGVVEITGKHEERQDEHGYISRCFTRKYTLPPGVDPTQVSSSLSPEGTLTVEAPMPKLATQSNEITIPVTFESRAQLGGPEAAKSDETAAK

Assay [1] has as its target T1, human HSPB6, wild type (human) (UniProt O14558).
T1 sequence: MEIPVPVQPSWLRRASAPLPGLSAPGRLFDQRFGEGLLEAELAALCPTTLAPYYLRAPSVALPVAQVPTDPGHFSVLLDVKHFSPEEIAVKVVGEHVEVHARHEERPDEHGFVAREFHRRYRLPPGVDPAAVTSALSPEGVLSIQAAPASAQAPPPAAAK
As to the kind of experiment: condition: only preincubated at 4 °C (30 μM per monomer of each); SEC; equimolar mixture, 30 μM per monomer of each sHSP in buffer S, preincubated at 4 °C for 1 hr, then Superdex 200 HR; both purified.

Assay [2] addresses T2, human HSPB6 C46S/E116C double mutant (human) (UniProt O14558).
T2 sequence: T1 sequence with C46S, E116C
As to the kind of experiment: cross-linking; disulfide cross-linking of mixtures: 50 μM of each protein in 50 mM sodium phosphate pH 7.5, 100 mM NaCl, 5 mM DTT overnight at 37 °C, then dialysis without DTT at 20 °C for 24 h; non-reducing SDS-PAGE; both purified.

The target of a further assay is T3, human HSPB1 S135F mutant (human, UniProt P04792 1-205, S135F).
T3 construct: HSPB1 (HSP27), human, with the autosomal dominant Charcot-Marie-Tooth mutation S135F; Disease mutation found in patients; Probably the whole protein; SUMO carrier probably removed (subtractive IMAC); The abstract once prints R135F for this mutant; source: recombinant (pET23b or pETHSUK construct), expressed as described earlier; purified (ammonium sulfate fractionation, anion-exchange, SEC; or …)
As to the kind of experiment: cross-linking; disulfide cross-linking of each HSPB1 variant alone: dialysis at 20 °C for 24 h against 50 mM sodium phosphate pH 7.5, 100 mM NaCl with or without 5 mM DTT; non-reducing SDS-PAGE; both purified.

Positions count from the first letter of the chain named. These are yes or no findings as the source states them, for the method shown. Some entries that bind do so weakly or less than the wild type.

In the case of “human small heat shock protein HSPB1, wild type (from UniProt P04792 1-205)”, in assay [1], the binding entry is on record as “no binding”. As for “human HSPB1 R136W mutant (from UniProt P04792 1-205)”, the binding entry in assay [2] is reported as “no binding (tested: 50 μM of each protein)”. Take “human HSPB1 S135F mutant (from UniProt P04792 1-205)”: the binding result in the assay with human HSPB1 S135F mutant is “binds weakly”.
